# Results published in the supplement of paper PMC3334620.
# In all, about 33,000 sequences were measured (“E-score (-0.5 to 0.5)”: median about -8e-05, highest 2% from about 0.23 on). Some of the results follow.
# Molecular target: T1, Nrg2 (UniProt P38082)
# T1 sequence: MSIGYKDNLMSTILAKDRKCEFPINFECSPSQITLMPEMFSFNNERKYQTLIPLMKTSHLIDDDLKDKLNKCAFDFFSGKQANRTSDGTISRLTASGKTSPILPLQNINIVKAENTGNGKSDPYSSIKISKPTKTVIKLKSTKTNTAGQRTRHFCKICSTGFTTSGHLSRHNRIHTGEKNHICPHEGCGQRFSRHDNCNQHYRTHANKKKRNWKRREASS
# Assay: PBM E-score (8-mer binding enrichment) (E-score (-0.5 to 0.5)); higher = stronger / more preferred TF binding
# Settings: protein concentration: 100 nM; construct: GST-full length
# In short: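 Full-length yeast transcription factors or their DNA-binding domains, GST-tagged and expressed with PURExpress, were applied at about 100-200 nM to universal all-10-mer Agilent arrays. These arrays had been made double-stranded by primer extension on fresh or once-stripped slides. Detection used fluorescent anti-GST, normalisation used masliner, and E-scores for ungapped eight-base words pooled with reverse complements came from the Universal PBM Analysis Suite.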
row,Sequence,PBM E-score
1,ACCAGATA,0.0558
2,CACCAATA,-0.00198
3,GCAATTCA,0.0732
4,GAGCCGTA,0.196
5,CGCACGTC,-0.132
6,AAGTCTAT,-0.0746
7,CATTTGGG,-0.0533
8,CAAAGGAA,0.0163
9,AGGTATCG,0.0761
10,CGCTATTA,0.0625
11,CTGGGGTC,0.015
12,GACATCTC,-0.0239
13,AAGAGGTA,0.0504
14,TATGCGAA,0.0489
15,AACGCTTA,-0.0173
16,CGTTGTAG,0.167
17,CTTAGGCA,-0.179
18,ACCGTCAC,-0.213
19,CTTGGCTA,0.00941
20,CCCAGGAA,-0.0761
21,CCACCCTC,0.147
22,ATTCGAAT,0.111
23,GAAGACGA,0.00571
24,ACGTTGCA,-0.0177
25,ATGCCGAA,0.112

# Individual results from above:
# Under PBM E-score, CTGGGGTC shows 0.015
# Under PBM E-score, CCCAGGAA shows -0.0761
# Under PBM E-score, CACCAATA shows -0.00198

# Further entries:

row,Sequence,PBM E-score
1,AGTGGACG,0.217
2,ACTATTTG,0.175
3,GACCCCGC,0.112
4,AACCTGTA,0.0935
5,AAATCTCT,-0.0459
6,GTAACTAC,0.0907
7,CGACAGAC,0.0422
8,CGGAGGCA,-0.134
9,ATTCCGAC,0.0375
10,AGGTACAA,-0.0416
11,CGAAGCCA,-0.0815
12,AACCACAA,0.132
13,GCGCCTTA,0.0825
14,AGCAATTA,0.105
15,AATGACTG,0.0626
16,GGTGAACA,-0.17
17,AACTGAGG,0.00921
18,ACGCAATC,-0.0578
19,ACGTTCCA,0.118
20,AACTAGGT,0.146
21,CCTGGACG,0.00022
22,CGGAGACG,0.0414
23,CGCCACTA,-0.0683
24,CGAACTGA,-0.00734
25,GAACTCCA,0.0176

row,Sequence,PBM E-score
1,TCCACAGA,0.145
2,CGCCTAAG,-0.189
3,ATCGTGCG,0.272
4,CCAAGTCG,-0.13
5,GCAGATAA,-0.00928
6,AATTATGA,0.134
7,AGCTTACG,-0.1
8,CCCACCTC,-0.116
9,GAGACAGC,0.105
10,AATGCTGA,-0.0636
11,GCCGCTGA,-0.03
12,GTATAAGA,0.0494
13,GACCCTCA,-0.116
14,ATATACGC,-0.0563
15,CGAAGTCC,0.0551
16,TGCCCGCA,0.148
17,ATTCTCTG,-0.0965
18,CGCCTCCG,-0.24
19,AGTTATCA,0.0246
20,GAGCTATA,-0.155
21,AGAACTAT,0.0901
22,TGTATCAA,0.17
23,ACCCGAGC,-0.0712
24,GCCAGACA,-0.0912
25,AGTGCTGG,-0.0104

row,Sequence,PBM E-score
1,ATACCGGG,0.086
2,CTACTGAC,-0.0473
3,GGTGTCAC,0.00043
4,AGGCGAGG,-0.207
5,ACAAACTG,0.00631
6,ATGTTATC,0.132
7,CGGGAAGA,0.156
8,AAAAACAG,0.0637
9,AGGCAAAT,0.093
10,GACTTGCA,0.103
11,AGCAATAA,-0.00892
12,AACGGAAC,0.137
13,TCGACCCA,0.0467
14,ATGCATGC,0.0867
15,AGATCGCT,-0.0997
16,ATTCAAAT,0.147
17,CTCGCTAA,-0.0741
18,ATTACGGG,0.0452
19,AGTTGTAT,0.0726
20,GAATATGC,-0.126
21,GCAAGCCA,-0.123
22,TAAGATCA,-0.045
23,CTACGGAC,-0.224
24,GATACGGA,0.0263
25,ATTGGCAC,-0.0221

row,Sequence,PBM E-score
1,GAGCGTTA,-0.0932
2,AGACACCA,0.0737
3,AGAGTACA,-0.0423
4,CCTGTTGA,0.0992
5,ACCCCGCA,0.102
6,GCGGATCC,-0.0277
7,CCACAAGG,-0.0352
8,AATTCATG,0.187
9,CCACTAGC,-0.164
10,CAATGCCC,-0.0428
11,CACCGATC,0.0391
12,ACTCACAA,0.141
13,AGGTGAAA,0.17
14,GAACGCGC,0.0678
15,AGAGTGGA,-0.11
16,GCGACGAC,-0.0673
17,GAGACCTA,0.0208
18,GCCGTTCA,0.0406
19,CCATAGAG,-0.0396
20,ACCACAAT,-0.0522
21,ATGCCGAC,-0.0164
22,GCCGCCGC,-0.169
23,CTACTAAC,0.112
24,ACCTCTCA,0.16
25,ATGGGGAC,0.0116

row,Sequence,PBM E-score
1,CAAAGACG,0.00487
2,CATGATTA,0.206
3,AACGCCAC,-0.0716
4,ACTACCCG,0.0609
5,CTCATCGA,0.0273
6,AAAGCAGC,0.0448
7,CAAGACAG,0.0149
8,CAGCAATG,-0.0837
9,AGACGGTG,-0.249
10,CTACCTTC,-0.1
11,ACGAGTTC,0.105
12,CCCAGCGA,0.0149
13,ACACAGAT,0.0714
14,GGCCAACA,-0.023
15,ACGAGAGT,0.00058
16,CAATCGAC,-0.102
17,AGGTTTCC,-0.0376
18,AGCTTAGC,0.0428
19,AAAGCTGA,-0.0432
20,GTTATTTA,0.0978
21,ATGAATAG,0.0625
22,CTCCTCCA,-0.0998
23,AGAGGAAC,-0.113
24,CCCTTAGG,-0.0646
25,GTGAAAAA,-0.0085

row,Sequence,PBM E-score
1,AGCGTTAG,-0.116
2,ATGAACAG,-0.159
3,ACTGACAG,0.218
4,CAGGCGTC,-0.123
5,CCATAATC,0.057
6,AGGCTGAC,-0.214
7,AAGCTAGC,-0.0325
8,ATGCCGTG,-0.0144
9,CAGAGAAG,0.0986
10,GGAATAGA,0.113
11,AAGGGTAT,0.227
12,GAAGTTGA,0.0978
13,CGACCGAA,-0.0283
14,AGATCTAA,-0.0519
15,AGAGTGCG,0.0431
16,GCCCGTAA,-0.0485
17,CAATGCGA,0.0348
18,CGCCCAAC,0.0143
19,ACCGCTGG,-0.0888
20,AGGGACAG,-0.0226
21,TCATTGCA,0.095
22,AGAGTAAT,0.0751

# In another format: results already given
row | Sequence | PBM E-score
2 | ATGAACAG | -0.159
15 | AGAGTGCG | 0.0431
18 | CGCCCAAC | 0.0143
